Test results taken from the supplement of paper PMC11732987, “Enantioselective OTUD7B fragment discovery through chemoproteomics screening and high-throughput optimisation” (Communications Chemistry, 2025).
The list shows a part of the results. The data scatter; read single values as rough.

The chains behind the UniProt entries cited, without tags or fusion partners. Where a name states a change or a piece, a line headed by the entry shows the natural chain unless it says otherwise. Residues count along the entry.
UniProt P23142: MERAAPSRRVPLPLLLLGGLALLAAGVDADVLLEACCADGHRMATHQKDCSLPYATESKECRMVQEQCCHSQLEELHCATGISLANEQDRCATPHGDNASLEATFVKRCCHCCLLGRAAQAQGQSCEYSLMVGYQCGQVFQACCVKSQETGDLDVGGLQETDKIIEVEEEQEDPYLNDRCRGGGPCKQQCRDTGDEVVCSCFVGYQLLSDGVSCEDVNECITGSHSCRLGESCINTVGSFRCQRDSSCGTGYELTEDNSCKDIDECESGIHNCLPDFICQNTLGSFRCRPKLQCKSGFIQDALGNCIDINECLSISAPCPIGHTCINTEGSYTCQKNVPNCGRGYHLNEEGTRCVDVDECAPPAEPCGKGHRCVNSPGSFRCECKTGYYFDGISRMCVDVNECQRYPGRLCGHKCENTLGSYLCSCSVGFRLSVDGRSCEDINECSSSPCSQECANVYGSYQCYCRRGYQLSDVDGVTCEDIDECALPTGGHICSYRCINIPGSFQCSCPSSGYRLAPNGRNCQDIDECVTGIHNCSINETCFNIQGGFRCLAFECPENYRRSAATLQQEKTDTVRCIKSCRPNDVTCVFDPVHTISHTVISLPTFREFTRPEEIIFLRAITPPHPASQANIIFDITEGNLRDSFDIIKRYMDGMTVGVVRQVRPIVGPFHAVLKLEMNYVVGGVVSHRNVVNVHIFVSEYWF
UniProt Q96IG2: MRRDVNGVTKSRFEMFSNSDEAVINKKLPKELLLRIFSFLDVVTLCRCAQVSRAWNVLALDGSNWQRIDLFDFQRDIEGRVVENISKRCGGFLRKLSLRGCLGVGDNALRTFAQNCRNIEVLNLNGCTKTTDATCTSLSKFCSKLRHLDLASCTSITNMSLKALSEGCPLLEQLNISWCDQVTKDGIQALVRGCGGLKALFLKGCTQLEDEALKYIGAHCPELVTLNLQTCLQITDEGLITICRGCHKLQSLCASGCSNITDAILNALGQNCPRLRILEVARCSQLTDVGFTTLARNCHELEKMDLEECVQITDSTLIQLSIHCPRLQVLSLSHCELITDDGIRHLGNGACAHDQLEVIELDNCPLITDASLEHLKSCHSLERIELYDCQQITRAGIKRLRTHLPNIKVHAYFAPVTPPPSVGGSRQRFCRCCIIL
UniProt Q9Y2H6, 549-573: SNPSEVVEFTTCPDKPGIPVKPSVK
UniProt P0C2W1: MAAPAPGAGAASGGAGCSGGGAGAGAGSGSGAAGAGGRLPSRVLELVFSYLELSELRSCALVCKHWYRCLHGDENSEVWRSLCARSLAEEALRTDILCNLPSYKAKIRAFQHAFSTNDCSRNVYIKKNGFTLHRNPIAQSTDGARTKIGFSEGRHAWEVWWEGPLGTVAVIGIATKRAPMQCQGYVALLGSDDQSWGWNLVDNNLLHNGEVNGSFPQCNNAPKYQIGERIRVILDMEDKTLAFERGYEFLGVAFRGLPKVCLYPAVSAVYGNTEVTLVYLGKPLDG
UniProt Q9NSD9: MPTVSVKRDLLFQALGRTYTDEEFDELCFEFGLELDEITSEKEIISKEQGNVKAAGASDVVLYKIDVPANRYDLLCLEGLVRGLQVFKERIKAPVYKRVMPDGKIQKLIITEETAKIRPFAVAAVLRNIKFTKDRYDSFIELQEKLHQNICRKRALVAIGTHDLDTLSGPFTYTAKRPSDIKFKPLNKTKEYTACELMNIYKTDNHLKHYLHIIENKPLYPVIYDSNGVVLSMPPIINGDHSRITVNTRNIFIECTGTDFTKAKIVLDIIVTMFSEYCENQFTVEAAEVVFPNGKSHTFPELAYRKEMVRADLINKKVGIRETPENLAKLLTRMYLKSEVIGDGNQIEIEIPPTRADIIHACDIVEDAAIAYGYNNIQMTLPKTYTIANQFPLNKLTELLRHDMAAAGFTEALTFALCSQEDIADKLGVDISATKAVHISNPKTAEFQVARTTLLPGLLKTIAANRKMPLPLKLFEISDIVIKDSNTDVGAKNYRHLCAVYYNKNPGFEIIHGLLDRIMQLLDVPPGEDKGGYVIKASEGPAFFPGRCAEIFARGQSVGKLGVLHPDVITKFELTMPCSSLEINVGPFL
UniProt Q9BQS8: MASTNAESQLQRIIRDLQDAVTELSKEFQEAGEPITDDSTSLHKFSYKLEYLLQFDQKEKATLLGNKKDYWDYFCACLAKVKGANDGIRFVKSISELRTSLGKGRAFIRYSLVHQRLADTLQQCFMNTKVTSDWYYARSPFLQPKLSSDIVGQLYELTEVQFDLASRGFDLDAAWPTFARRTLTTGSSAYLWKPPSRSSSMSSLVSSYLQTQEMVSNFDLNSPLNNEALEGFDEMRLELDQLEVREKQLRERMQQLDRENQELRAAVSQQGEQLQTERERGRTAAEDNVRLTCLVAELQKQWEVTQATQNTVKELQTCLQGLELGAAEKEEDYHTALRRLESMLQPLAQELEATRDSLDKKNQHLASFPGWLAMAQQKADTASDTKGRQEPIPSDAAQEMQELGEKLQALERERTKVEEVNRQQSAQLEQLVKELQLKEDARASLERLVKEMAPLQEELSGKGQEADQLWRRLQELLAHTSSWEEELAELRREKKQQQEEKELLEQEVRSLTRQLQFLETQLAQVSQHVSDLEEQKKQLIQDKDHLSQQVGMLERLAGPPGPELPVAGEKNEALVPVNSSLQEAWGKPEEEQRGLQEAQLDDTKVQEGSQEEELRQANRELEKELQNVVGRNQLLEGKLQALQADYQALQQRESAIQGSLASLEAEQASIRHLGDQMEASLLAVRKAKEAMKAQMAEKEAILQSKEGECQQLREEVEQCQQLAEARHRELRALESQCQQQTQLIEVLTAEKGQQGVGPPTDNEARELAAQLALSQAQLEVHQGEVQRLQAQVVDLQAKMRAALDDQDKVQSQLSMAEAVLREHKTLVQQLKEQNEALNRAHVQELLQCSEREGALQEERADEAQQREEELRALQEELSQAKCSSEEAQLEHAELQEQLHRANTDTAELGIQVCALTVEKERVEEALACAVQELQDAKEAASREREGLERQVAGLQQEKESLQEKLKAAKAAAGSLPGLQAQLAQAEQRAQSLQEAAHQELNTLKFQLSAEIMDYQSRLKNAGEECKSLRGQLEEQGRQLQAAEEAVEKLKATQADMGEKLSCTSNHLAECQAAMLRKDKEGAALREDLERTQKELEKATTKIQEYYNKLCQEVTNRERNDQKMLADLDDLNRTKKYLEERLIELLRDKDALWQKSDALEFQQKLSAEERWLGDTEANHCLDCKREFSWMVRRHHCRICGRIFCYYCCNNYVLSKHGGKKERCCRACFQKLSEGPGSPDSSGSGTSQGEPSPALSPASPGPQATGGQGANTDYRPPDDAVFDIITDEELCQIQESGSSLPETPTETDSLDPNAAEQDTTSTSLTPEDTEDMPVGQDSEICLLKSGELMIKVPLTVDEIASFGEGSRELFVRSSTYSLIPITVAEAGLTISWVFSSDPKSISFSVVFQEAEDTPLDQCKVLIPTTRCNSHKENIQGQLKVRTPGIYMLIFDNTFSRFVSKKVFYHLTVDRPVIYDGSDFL
UniProt Q9H469: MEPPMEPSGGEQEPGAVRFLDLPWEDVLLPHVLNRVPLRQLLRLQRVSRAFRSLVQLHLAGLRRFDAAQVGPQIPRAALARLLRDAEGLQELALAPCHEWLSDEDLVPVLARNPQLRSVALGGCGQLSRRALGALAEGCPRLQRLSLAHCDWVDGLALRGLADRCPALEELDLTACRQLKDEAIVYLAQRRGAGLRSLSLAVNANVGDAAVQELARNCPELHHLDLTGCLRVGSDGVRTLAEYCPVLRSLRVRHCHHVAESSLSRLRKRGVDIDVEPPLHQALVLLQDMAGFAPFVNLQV
UniProt Q96ME1: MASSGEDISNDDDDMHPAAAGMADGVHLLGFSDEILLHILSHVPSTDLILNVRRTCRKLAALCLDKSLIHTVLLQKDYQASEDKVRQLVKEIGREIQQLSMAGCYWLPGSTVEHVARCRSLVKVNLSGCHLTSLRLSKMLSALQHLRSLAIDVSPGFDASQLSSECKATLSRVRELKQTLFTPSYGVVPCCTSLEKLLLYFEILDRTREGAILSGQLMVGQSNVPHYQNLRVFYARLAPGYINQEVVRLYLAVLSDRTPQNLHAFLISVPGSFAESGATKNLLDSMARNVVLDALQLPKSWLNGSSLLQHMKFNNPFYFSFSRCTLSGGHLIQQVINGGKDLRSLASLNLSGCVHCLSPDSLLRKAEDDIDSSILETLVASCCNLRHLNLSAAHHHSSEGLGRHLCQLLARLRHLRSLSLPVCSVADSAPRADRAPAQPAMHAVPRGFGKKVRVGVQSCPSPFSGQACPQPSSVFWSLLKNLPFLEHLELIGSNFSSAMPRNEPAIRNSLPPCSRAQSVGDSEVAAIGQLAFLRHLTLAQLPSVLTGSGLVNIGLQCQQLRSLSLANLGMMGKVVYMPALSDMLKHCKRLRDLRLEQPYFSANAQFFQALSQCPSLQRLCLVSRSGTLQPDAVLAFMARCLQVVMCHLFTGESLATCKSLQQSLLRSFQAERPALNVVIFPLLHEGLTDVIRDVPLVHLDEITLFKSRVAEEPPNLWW
UniProt Q6PIW4: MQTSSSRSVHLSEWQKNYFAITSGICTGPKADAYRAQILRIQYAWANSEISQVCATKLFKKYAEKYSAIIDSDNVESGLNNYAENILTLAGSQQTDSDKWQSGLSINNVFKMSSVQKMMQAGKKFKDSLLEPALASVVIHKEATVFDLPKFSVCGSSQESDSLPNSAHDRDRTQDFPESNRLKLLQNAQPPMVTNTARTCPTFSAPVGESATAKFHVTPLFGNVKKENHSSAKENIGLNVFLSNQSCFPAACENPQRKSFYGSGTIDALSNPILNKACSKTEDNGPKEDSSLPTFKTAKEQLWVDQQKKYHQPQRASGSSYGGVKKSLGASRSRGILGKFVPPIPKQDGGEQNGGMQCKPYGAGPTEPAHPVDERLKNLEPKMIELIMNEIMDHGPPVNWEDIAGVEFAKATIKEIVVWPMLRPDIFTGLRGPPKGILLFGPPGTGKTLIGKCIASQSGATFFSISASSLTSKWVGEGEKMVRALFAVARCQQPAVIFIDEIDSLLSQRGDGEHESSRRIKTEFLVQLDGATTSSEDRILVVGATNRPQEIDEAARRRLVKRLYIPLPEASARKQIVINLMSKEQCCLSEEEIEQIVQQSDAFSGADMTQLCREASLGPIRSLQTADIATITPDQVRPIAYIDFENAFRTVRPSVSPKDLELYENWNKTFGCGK
UniProt Q96AY3: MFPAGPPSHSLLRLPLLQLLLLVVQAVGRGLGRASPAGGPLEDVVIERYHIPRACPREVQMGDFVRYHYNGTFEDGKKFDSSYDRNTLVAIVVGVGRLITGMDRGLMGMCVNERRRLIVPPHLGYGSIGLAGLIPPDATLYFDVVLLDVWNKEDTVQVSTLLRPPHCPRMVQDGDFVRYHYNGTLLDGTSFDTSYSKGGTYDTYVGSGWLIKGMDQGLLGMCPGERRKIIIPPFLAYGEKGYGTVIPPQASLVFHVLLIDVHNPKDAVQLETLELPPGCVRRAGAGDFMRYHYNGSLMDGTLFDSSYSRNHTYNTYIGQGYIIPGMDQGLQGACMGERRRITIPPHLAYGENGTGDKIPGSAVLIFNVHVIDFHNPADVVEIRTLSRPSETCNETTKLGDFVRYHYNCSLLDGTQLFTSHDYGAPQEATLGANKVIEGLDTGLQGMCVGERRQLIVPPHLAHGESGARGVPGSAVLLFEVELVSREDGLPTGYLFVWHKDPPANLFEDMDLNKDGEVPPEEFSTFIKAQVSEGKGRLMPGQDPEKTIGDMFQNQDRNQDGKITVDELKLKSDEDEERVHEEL
UniProt P25445, whole entry, looked up: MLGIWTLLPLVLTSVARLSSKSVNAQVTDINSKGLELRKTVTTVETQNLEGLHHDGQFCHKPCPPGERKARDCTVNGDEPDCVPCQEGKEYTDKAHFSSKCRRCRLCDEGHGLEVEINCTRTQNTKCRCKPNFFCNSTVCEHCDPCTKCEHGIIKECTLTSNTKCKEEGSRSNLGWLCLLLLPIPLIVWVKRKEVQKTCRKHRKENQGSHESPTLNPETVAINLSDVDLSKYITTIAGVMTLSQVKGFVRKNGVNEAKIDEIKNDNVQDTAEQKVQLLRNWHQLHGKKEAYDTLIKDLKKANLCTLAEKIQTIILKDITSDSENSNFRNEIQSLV

Key:
[1] = compound: ClCC(=O)N[C@@H]1CCCc2ccccc12; assay: log2 mean competition ratio of IA-DTB cysteine labelling (DMSO/compound) (log2 ratio); higher = stronger cysteine engagement by compound; conditions: treatment time: 4 h, cell line lysate: HEK293T
Method: (§1)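 IA-DTB competitive cysteine chemoproteomics in HEK293T RIPA lysate. Lysates were treated with compound 29 or 30 at 50 or 200 µM for 4 h, then IA-DTB (500 µM, 1 h), trypsin-digested, NeutrAvidin-enriched and analysed by diaPASEF. Competition ratio = intensity DMSO / intensity compound (n=4 treated, n=64 DMSO); binding: mean log2 CR ≥ 1 and p ≤ 0.05 plus QC filters. Target is the cysteine site.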

[2] = compound: ClCC(=O)N[C@H]1CCCc2ccccc12; assay: as above; conditions: treatment time: 4 h, cell line lysate: HEK293T
Method: as §1

Target | log2 mean competition ratio ([1]; 50 µM) | log2 mean competition ratio ([1]; 200 µM) | log2 mean competition ratio ([2]; 50 µM) | log2 mean competition ratio ([2]; 200 µM)
FARP2 C196 | -0.00216 | 0.207 | 0.129 | 0.156
FBLN1 C341 (UniProt P23142) | -0.00519 |  | -0.13 | 
FBXL20 C135 (UniProt Q96IG2) | 0.103 | 0.196 | -0.0623 | 0.189
FBXO44;FBXO6 C30;(C37) | -0.0341 | 0.295 | 0.0377 | 0.239
FNDC3A C560 (UniProt Q9Y2H6) | -0.524 | 0.0767 | -0.903 | -0.294
FLNA C1157 | -0.253 | -0.447 | -0.687 | -0.583
FBXO45 C69 (UniProt P0C2W1) | -0.02 | 0.404 | -0.36 | 0.62
FBXO45 C98 (UniProt P0C2W1) | -0.197 | -0.378 | -0.418 | -0.225
FARSB C255 (UniProt Q9NSD9) | -0.178 | -0.24 | -0.272 | -0.129
FBLN1 C373 (UniProt P23142) | 0.08 | 0.148 | -0.149 | 0.117
FYCO1 C848 (UniProt Q9BQS8) | -0.173 | 0.888 | -0.362 | 0.417
FOXM1 C160 | -0.526 | 0.172 | 0.0537 | 0.0442
FHIP2A C507 | -0.133 | 0.338 | -0.281 | 0.142
FMNL3 C623 (UniProt Q8IVF7) | 0.0515 | 0.153 | -0.412 | 0.157
FARSB C151 (UniProt Q9NSD9) | 0.118 | -0.107 | 0.179 | -0.227
FBXL15 C244 (UniProt Q9H469) | 0.0396 | 0.167 | 0.0241 | 0.386
FARSB C195 (UniProt Q9NSD9) | -0.000594 | 0.03 | -0.11 | -0.114
FBXL18 C513 (UniProt Q96ME1) |  | 0.235 | 0.0215 | 0.00338
FIGNL1 C54 (UniProt Q6PIW4) |  | 0.075 |  | 0.422
FKBP10 C447 (UniProt Q96AY3) | -0.288 | 0.225 | 0.246 | 0.257
FAS C304 (UniProt P25445) | 0.12 | -0.00879 | 0.252 | 0.0112

Only log2 mean competition ratio ([1]; 200 µM) (two entries from above):
Target | log2 mean competition ratio ([1]; 200 µM)
FBXL20 C135 (UniProt Q96IG2) | 0.196
FAS C304 (UniProt P25445) | -0.00879
